The supplement of paper PMC10849652
The list shows a part of the results.

By UniProt entry, the sequences of proteins in these tests, tags left out. Where a name states a change or a piece, a line headed by the entry shows the natural chain unless it says otherwise.
UniProt P52888, whole entry, looked up: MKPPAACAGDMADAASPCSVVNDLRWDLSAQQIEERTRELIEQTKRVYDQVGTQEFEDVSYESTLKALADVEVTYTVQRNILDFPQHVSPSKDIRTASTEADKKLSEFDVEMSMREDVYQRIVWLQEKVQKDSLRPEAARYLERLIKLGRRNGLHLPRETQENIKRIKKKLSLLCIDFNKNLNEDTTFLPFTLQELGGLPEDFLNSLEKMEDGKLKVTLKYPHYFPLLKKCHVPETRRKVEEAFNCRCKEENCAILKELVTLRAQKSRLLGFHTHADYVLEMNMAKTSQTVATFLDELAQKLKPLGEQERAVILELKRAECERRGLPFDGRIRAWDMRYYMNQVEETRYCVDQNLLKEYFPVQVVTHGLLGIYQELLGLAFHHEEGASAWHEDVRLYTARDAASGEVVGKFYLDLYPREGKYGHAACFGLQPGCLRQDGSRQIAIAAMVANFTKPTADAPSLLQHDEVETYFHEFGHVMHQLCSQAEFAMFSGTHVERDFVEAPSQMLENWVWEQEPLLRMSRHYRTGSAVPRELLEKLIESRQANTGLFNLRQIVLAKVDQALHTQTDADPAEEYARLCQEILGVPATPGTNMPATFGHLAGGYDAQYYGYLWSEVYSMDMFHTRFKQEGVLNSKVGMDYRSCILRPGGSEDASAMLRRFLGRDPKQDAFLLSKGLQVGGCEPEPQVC
UniProt Q9Y5J7: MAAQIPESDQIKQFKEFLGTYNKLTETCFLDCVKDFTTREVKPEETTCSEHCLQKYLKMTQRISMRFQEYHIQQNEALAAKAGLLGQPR
UniProt P62072: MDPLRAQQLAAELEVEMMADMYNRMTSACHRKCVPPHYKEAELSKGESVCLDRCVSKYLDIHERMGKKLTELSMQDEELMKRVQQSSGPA
UniProt Q9BZK7: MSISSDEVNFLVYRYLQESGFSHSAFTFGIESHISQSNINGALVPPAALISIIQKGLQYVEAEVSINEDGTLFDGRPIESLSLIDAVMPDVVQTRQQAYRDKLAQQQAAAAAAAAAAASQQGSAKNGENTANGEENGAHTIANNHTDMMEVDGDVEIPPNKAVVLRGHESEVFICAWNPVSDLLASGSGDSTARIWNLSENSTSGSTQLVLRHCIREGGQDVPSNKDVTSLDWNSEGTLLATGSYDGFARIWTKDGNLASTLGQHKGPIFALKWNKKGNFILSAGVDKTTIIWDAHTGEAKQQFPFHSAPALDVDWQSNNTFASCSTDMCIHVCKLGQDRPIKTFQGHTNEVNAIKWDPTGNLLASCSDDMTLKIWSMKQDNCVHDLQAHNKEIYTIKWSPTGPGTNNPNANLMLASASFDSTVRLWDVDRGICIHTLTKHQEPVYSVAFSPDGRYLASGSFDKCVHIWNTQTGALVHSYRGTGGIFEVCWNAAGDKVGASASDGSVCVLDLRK
UniProt Q66K14, whole entry, looked up: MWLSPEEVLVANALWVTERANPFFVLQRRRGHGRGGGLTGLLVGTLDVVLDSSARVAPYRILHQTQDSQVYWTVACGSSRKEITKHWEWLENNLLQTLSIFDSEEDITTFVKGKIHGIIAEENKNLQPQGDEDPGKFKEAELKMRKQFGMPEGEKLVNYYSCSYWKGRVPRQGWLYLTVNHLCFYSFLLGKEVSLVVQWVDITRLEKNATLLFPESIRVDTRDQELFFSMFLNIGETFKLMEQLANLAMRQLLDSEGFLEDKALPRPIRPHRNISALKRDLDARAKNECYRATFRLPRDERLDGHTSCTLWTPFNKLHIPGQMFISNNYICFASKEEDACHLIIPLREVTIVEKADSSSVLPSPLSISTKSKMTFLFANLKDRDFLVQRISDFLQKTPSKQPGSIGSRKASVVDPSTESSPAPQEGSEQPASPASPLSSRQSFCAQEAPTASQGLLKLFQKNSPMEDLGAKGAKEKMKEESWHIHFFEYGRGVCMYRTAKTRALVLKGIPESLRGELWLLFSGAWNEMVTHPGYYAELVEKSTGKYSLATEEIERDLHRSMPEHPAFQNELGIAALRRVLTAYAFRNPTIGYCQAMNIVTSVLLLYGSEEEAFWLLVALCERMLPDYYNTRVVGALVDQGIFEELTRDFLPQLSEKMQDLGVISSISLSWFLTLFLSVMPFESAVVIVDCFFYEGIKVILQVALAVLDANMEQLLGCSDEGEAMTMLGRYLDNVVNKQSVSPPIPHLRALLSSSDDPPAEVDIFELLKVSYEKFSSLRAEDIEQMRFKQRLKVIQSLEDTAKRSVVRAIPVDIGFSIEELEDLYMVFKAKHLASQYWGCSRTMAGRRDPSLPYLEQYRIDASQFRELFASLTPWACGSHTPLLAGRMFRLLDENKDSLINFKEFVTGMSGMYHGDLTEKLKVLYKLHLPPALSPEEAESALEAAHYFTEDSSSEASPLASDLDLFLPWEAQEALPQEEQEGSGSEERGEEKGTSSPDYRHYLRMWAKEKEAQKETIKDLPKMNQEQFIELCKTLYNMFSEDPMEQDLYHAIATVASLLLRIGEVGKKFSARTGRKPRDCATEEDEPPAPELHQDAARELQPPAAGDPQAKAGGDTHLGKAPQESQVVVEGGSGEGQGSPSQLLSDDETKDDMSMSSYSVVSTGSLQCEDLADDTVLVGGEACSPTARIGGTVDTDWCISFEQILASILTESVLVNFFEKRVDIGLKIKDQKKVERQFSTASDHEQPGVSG
UniProt Q3LXA3: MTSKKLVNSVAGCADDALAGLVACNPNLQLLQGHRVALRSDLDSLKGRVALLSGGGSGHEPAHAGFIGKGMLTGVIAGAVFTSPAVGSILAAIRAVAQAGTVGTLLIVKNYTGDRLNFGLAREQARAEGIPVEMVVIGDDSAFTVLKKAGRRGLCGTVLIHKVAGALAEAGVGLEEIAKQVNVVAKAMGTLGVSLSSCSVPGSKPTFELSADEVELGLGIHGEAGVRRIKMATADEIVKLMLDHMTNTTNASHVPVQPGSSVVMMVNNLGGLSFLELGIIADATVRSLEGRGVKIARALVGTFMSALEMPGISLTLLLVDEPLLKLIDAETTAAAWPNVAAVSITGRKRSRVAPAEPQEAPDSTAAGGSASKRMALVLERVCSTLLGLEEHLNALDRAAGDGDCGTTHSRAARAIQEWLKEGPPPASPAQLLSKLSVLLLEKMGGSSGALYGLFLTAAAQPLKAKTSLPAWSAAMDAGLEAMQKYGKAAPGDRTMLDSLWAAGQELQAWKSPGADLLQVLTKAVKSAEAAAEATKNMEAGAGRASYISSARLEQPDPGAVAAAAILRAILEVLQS
UniProt Q13428: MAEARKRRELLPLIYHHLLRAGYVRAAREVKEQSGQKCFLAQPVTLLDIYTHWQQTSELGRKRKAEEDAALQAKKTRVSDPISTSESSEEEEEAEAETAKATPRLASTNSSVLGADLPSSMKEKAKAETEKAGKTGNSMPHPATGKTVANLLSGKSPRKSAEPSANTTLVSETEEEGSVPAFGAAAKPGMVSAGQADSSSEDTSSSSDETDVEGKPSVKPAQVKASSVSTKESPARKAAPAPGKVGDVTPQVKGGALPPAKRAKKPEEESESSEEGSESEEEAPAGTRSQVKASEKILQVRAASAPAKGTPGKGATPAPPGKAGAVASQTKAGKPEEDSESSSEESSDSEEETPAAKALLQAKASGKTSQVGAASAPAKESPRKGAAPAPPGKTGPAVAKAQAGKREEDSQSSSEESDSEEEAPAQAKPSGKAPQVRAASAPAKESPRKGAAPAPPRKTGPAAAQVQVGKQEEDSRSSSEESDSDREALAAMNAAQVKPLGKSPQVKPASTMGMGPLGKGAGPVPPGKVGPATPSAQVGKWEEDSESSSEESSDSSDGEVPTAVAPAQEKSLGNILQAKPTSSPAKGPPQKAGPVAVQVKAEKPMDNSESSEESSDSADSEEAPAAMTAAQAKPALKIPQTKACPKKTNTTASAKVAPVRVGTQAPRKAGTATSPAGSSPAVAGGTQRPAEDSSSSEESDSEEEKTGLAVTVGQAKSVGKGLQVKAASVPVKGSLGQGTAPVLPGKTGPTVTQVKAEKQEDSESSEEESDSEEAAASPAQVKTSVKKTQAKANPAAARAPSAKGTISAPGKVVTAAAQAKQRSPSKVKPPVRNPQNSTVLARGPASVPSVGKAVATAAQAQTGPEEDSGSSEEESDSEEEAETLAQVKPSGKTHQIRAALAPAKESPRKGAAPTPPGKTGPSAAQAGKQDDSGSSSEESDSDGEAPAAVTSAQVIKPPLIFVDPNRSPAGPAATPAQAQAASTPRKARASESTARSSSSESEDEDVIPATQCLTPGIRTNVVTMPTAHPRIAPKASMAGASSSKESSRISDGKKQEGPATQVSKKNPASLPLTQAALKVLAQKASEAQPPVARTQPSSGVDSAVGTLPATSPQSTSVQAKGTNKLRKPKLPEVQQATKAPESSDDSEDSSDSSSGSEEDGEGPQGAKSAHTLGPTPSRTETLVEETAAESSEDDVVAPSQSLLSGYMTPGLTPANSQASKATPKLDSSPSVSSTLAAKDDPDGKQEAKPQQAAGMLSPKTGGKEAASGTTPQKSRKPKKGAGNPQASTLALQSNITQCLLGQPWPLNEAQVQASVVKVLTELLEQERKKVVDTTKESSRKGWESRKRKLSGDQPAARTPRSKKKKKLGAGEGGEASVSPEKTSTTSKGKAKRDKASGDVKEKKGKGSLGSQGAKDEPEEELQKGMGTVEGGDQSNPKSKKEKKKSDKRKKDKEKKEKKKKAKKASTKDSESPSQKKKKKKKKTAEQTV
UniProt O60220: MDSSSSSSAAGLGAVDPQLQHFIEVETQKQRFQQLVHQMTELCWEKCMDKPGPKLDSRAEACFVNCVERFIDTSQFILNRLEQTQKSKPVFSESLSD
UniProt Q99595: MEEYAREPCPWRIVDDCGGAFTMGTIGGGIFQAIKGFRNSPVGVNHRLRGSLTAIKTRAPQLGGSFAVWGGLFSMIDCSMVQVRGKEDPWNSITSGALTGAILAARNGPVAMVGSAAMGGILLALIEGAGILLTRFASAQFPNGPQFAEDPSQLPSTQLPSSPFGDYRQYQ
UniProt P02786, whole entry, looked up: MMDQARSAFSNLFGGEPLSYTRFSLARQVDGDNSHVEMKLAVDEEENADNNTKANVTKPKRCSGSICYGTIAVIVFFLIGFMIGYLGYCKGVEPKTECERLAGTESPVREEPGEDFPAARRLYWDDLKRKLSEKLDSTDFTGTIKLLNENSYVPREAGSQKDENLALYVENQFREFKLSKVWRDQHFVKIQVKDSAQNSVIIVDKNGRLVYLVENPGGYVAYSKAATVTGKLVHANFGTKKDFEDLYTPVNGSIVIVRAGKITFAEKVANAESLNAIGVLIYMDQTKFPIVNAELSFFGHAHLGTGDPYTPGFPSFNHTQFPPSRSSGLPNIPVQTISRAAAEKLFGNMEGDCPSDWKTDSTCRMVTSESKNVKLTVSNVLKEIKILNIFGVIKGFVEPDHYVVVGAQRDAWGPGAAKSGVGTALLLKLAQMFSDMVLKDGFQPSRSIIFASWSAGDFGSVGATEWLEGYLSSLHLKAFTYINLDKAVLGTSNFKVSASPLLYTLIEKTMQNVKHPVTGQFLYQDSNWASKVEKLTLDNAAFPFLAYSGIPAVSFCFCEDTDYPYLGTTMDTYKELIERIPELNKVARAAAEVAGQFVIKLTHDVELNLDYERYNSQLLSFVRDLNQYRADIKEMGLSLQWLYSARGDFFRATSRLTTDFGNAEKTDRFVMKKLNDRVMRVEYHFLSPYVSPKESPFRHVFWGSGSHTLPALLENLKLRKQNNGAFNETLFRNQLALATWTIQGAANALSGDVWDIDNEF
UniProt Q9NWX6: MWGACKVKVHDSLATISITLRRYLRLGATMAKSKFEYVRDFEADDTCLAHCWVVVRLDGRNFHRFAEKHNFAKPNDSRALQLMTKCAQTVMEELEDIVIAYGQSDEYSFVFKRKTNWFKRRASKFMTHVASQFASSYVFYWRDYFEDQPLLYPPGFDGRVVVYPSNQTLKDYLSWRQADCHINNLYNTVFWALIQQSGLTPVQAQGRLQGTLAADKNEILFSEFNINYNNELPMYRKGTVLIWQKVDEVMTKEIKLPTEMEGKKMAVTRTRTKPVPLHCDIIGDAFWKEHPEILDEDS
UniProt Q9UGI8: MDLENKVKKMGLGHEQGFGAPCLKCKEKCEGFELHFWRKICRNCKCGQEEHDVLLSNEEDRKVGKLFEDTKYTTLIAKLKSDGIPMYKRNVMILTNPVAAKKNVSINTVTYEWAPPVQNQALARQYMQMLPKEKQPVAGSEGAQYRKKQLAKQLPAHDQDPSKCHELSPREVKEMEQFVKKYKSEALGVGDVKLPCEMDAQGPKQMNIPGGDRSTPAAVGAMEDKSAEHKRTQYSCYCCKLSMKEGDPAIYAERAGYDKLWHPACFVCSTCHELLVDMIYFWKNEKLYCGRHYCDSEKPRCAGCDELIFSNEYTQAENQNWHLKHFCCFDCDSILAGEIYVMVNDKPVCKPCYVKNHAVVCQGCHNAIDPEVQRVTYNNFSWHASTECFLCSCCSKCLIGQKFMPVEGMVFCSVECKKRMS
UniProt O75347: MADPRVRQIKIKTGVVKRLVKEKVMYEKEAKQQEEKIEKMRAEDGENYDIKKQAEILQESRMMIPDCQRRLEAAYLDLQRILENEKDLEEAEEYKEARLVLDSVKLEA

Compound: Cc1ccc(-n2nc(C(C)(C)C)cc2NC(=O)Nc2ccc(OCCN3CCOCC3)c3ccccc23)cc1 [doramapimod]
Assay: log2 fold change, soluble protein after heating vs DMSO (PISA); higher = thermal stabilisation; K562 cells, 10 uM, 30 min; active = over 0.2 and 3.5 SD of the protein, either way, in both replicates (recomputed)
How it was run: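 Quantification of soluble protein used TMTpro 16plex LC-MS/MS, with channel sums equalised. Samples were the supernatant after 21,000xg for 90 min of pooled aliquots from K562 cells (2×10^6 cells/mL) treated with 10 μM compound for 30 min, heated for 3 min over 48°C-58°C, and extracted in PBS with 0.5% NP-40 at 4°C. Values, from duplicates, describe thermal stability against control samples on a log2 fold-change scale.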

Question: How did the log2 fold change turn out when TEX264 (UniProt Q9Y6I9) was run?
Answer: inactive: 0.039

Question: Which log2 fold change does the source give for THOP1 (UniProt P52888) here?
Answer: inactive: -0.02

Question: For TGFBRAP1 (UniProt Q8WUH2), which log2 fold change is on record?
Answer: inactive: 0

Question: TIMM9 (UniProt Q9Y5J7) was tested. Which log2 fold change did it give?
Answer: inactive: 0.029

Question: TCF3 (UniProt P15923) was tested. Which log2 fold change did it give?
Answer: inactive: 0.009

Question: For TIMM10 (UniProt P62072), which log2 fold change is on record?
Answer: inactive: 0.021

Question: Which log2 fold change does the source give for TFR2 (UniProt Q9UP52) here?
Answer: inactive: -0.019

Question: TBL1XR1 (UniProt Q9BZK7) was tested. Which log2 fold change did it give?
Answer: inactive: 0.015

Question: With TBC1D9B (UniProt Q66K14) as the target, how does the log2 fold change read?
Answer: inactive: 0.007

Question: With TKFC (UniProt Q3LXA3) as the target, how does the log2 fold change read?
Answer: inactive: -0.003

Question: TGFBR1 isoform 2 (UniProt P36897) was tested. Which log2 fold change did it give?
Answer: inactive: -0.005

Question: How did the log2 fold change turn out when TCOF1 isoform 4 (UniProt Q13428) was run?
Answer: inactive: 0.013

Question: How did the log2 fold change turn out when TIMM8A (UniProt O60220) was run?
Answer: inactive: 0.006

Question: For THUMPD2 (UniProt Q9BTF0), which log2 fold change is on record?
Answer: inactive: -0.026

Question: How did the log2 fold change turn out when TFB2M (UniProt Q9H5Q4) was run?
Answer: inactive: -0.024

Question: For TIMM17A (UniProt Q99595), which log2 fold change is on record?
Answer: inactive: -0.009

Question: TFRC (UniProt P02786) was tested. Which log2 fold change did it give?
Answer: inactive: -0.012

Question: THG1L (UniProt Q9NWX6) was tested. Which log2 fold change did it give?
Answer: inactive: -0.013

Question: With TBCC (UniProt Q15814) as the target, how does the log2 fold change read?
Answer: inactive: -0.039

Question: For TES (UniProt Q9UGI8), which log2 fold change is on record?
Answer: inactive: 0

Question: For TELO2 (UniProt Q9Y4R8), which log2 fold change is on record?
Answer: inactive: 0.094

Question: Which log2 fold change does the source give for TBCA (UniProt O75347) here?
Answer: inactive: -0.035

Question: TBC1D4 (UniProt O60343) was tested. Which log2 fold change did it give?
Answer: inactive: -0.011
